Data reported in patent US9657260B2, “Method and system for continous monitoring of toxicity” (Yissum Research Development Company of The Hebrew …, priority 2014, dated 2017).
Read-outs that look alike come from different tables or passages of the source.

Key:
in vitro = settings: human
HepG2/C3A cells = settings: for oxygen uptake, % of normal respiration: 24 hrs exposure
[1] = system: primary human hepatocytes; settings: read-out: TC50 in primary hepatocytes; cited from earlier work

CCCCc1oc2ccccc2c1C(=O)c1cc(I)c(OCCN(CC)CC)c(I)c1 [amiodarone]
CC50 at 24 h (in vitro): 425 µM
oxygen uptake, % of normal respiration (HepG2/C3A cells; 200 μM amiodarone): 84%
oxygen uptake, % of normal respiration (HepG2/C3A cells; 500 μM amiodarone): 42%
oxygen uptake, % of normal respiration (HepG2/C3A cells; 1000 μM amiodarone): 0%
TC50 (HepG2/C3A cells; human, 24 h): 0.000425 µM
CC50 [1]: 100 µM
